Data from PMC7995733.

Protein sequences, listed by entry. Tags and fused reporters are not part of them. Residues count along the entry.
UniProt P19957, residues 61-117: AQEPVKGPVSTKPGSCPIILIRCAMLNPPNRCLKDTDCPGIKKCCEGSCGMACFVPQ

Biological target: Elafin (endogenous, PLC-8024 cells) (human (endogenous in PLC-8024)) (UniProt P19957)
Test: affinity purification with mass spectrometry; immunoprecipitation of Elafin from the PLC-8024-cell-mixture (RIPA cell extracts mixed with concentrated conditioned medium), mass spectrometry of the precipitate

binding: binds
Substance: Epidermal growth factor receptor (endogenous, HCC cells) (from UniProt P00533 25-1210)

No constants are given. Whether binding was seen depends on the method and setting. Binding seen in cells or lysates may run through a third protein. Here binding means that the protein was enriched with, or labelled near, the bait; the list need not be complete.
